# Measurements from the supplement of paper PMC8728848.
# This is one part of the list.
# B1: PX14351B-bth-512-36-512 (Bacteroides thetaiotaomicron) (protein)
# chain: ASETQQWKTLEDTRSALMGVYGLTRAALADNNTHWICGDLRKGDFTVYKRSDLQAVSDNELNKPYDLLKKVSNWRRFYAVINAASVFMEKAPRTVELDRSYSEQNLKYDIAQVRALRAFAYFYMVRIWGDVPLVTYSYDNGTFPSMPRTDAQTVLSYAKAELLTAIEDLPYQYGTQTNLYYGSYGAQWQGKLFNKLSAYSVLAHICAWQGNYAEAETYSAFIIDHASEINAKYTSIADLTSETGLFYSNASVKGSRILGFNFAHNDNEATQSGHLEQLTLAYPLVQKSYPEIYISKDSLFSIFTNFDDLRFGIIDTIKYSSYYVQNLNEETPVFSKIKIIQDGSAKDNDFGVFGSSIVFTRLEDITLLRAEALCALNRSTEAVSYLNMIRTNRGLREVSFKKDFGNNRESLIAEIFEERRRELMGEGWRWYDLVRRQKLMKDNEAFLRLISSGGIYWPVSEDIITANSQIEQNEFWK
# Key:
# Test in all cases: glycan array binding signal (z-score within array); higher = stronger binding
# Settings in all cases: glycan notation: IUPAC condensed, linker removed
# [1] = molecular target: Gal(b1-3)GlcNAc(b1-3)Gal(b1-4)GlcNAc(b1-3)Gal(b1-4)GlcNAc(b1-2)[Gal(b1-3)GlcNAc(b1-3)Gal(b1-4)GlcNAc(b1-3)Gal(b1-4)GlcNAc(b1-6)]Man(a1-6)[Gal(b1-3)GlcNAc(b1-3)Gal(b1-4)GlcNAc(b1-3)Gal(b1-4)GlcNAc(b1-2)Man(a1-3)]Man(b1-4)GlcNAc(b1-4)[Fuc(a1-6)]GlcNAc
# In short: (§1)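 The Consortium for Functional Glycomics database supplied 3228 glycan arrays, of which those lacking an available protein sequence were dropped. The binding signal, a within-array Z-score, was averaged across arrays of the same protein sequence and across linkers. Negative scores can be read as non-binding.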
# [2] = molecular target: Gal(b1-3)GlcNAc(b1-3)Gal(b1-4)GlcNAc(b1-6)[Gal(b1-3)GlcNAc(b1-3)]Gal(b1-4)Glc
# In short: as §1
# [3] = molecular target: Gal(b1-3)GlcNAc(b1-3)Gal(b1-4)[Fuc(a1-3)]GlcNAc
# In short: as §1
# [4] = molecular target: Gal(b1-3)GlcNAc(b1-3)Gal(b1-4)[Fuc(a1-3)]GlcNAc(b1-6)[Gal(b1-3)GlcNAc(b1-3)]Gal(b1-4)Glc
# In short: as §1
# [5] = molecular target: Gal(b1-3)GlcNAc(b1-3)GalNAc
# In short: as §1
# [6] = molecular target: Gal(b1-3)GlcNAc(b1-6)Gal(b1-4)GlcNAc
# In short: as §1
# [7] = molecular target: Gal(b1-3)GlcNAc(b1-6)GalNAc
# In short: as §1
# [8] = molecular target: Gal(b1-3)GlcNAc(b1-6)[Gal(b1-3)]GalNAc
# In short: as §1
# Gal(b1-3)GlcNAc6S = molecular target: Gal(b1-3)GlcNAc6S
# In short: as §1
# [9] = molecular target: Gal(b1-3)[Fuc(a1-4)]GlcNAc
# In short: as §1
# [10] = molecular target: Gal(b1-3)[Fuc(a1-4)]GlcNAc(b1-2)Man
# In short: as §1
# [11] = molecular target: Gal(b1-3)[Fuc(a1-4)]GlcNAc(b1-2)Man(a1-3)[Gal(b1-3)[Fuc(a1-4)]GlcNAc(b1-2)Man(a1-6)]Man(b1-4)GlcNAc(b1-4)[Fuc(a1-6)]GlcNAc
# In short: as §1
# [12] = molecular target: Gal(b1-3)[Fuc(a1-4)]GlcNAc(b1-3)Gal(b1-3)[Fuc(a1-4)]GlcNAc
# In short: as §1
# [13] = molecular target: Gal(b1-3)[Fuc(a1-4)]GlcNAc(b1-3)Gal(b1-4)[Fuc(a1-3)]GlcNAc
# In short: as §1
# [14] = molecular target: Gal(b1-3)[Fuc(a1-4)]GlcNAc(b1-6)GalNAc
# In short: as §1
# [15] = molecular target: Gal(b1-3)[GlcNAc(b1-6)]GalNAc
# In short: as §1
# [16] = molecular target: Gal(b1-3)[Neu5Ac(a2-6)]GalNAc
# In short: as §1
# [17] = molecular target: Gal(b1-3)[Neu5Ac(b2-6)]GalNAc
# In short: as §1
# Gal(b1-4)Gal = molecular target: Gal(b1-4)Gal
# In short: as §1
# [18] = molecular target: Gal(b1-4)GalNAc(a1-3)[Fuc(a1-2)]Gal(b1-4)GlcNAc
# In short: as §1
# [19] = molecular target: Gal(b1-4)GalNAc(b1-3)[Fuc(a1-2)]Gal(b1-4)GlcNAc
# In short: as §1
# Gal(b1-4)Glc = molecular target: Gal(b1-4)Glc
# In short: as §1
# Gal(b1-4)Glc6S = molecular target: Gal(b1-4)Glc6S
# In short: as §1
# Gal(b1-4)GlcNAc = molecular target: Gal(b1-4)GlcNAc
# In short: as §1
# [20] = molecular target: Gal(b1-4)GlcNAc(a1-6)Gal(b1-4)GlcNAc
# In short: as §1
# Gal(b1-4)GlcNAc(b1-2)Man = molecular target: Gal(b1-4)GlcNAc(b1-2)Man
# In short: as §1
# [21] = molecular target: Gal(b1-4)GlcNAc(b1-2)Man(a1-3)Man(b1-4)GlcNAc(b1-4)GlcNAc
# In short: as §1
# [22] = molecular target: Gal(b1-4)GlcNAc(b1-2)Man(a1-3)[Gal(b1-4)GlcNAc(b1-2)Man(a1-6)]Man(b1-4)GlcNAc(b1-4)GlcNAc
# In short: as §1
# [23] = molecular target: Gal(b1-4)GlcNAc(b1-2)Man(a1-3)[Gal(b1-4)GlcNAc(b1-2)Man(a1-6)]Man(b1-4)GlcNAc(b1-4)[Fuc(a1-6)]GlcNAc
# In short: as §1
# [24] = molecular target: Gal(b1-4)GlcNAc(b1-2)Man(a1-3)[Gal(b1-4)GlcNAc(b1-2)Man(a1-6)][Gal(b1-4)GlcNAc(b1-4)]Man(b1-4)GlcNAc(b1-4)[Fuc(a1-6)]GlcNAc
# In short: as §1
# [25] = molecular target: Gal(b1-4)GlcNAc(b1-2)Man(a1-3)[Gal(b1-4)GlcNAc(b1-2)Man(a1-6)][GlcNAc(b1-4)]Man(b1-4)GlcNAc(b1-4)[Fuc(a1-6)]GlcNAc
# In short: as §1
# [26] = molecular target: Gal(b1-4)GlcNAc(b1-2)Man(a1-3)[GlcNAc(b1-2)Man(a1-6)]Man(b1-4)GlcNAc(b1-4)GlcNAc
# In short: as §1
# [27] = molecular target: Gal(b1-4)GlcNAc(b1-2)Man(a1-3)[GlcNAc(b1-4)][Gal(b1-4)GlcNAc(b1-2)Man(a1-6)]Man(b1-4)GlcNAc(b1-4)GlcNAc
# In short: as §1
# [28] = molecular target: Gal(b1-4)GlcNAc(b1-2)Man(a1-3)[Man(a1-6)]Man(b1-4)GlcNAc(b1-4)GlcNAc
# In short: as §1
# [29] = molecular target: Gal(b1-4)GlcNAc(b1-2)Man(a1-6)Man(b1-4)GlcNAc(b1-4)GlcNAc
# In short: as §1
# [30] = molecular target: Gal(b1-4)GlcNAc(b1-2)Man(a1-6)[GlcNAc(b1-2)Man(a1-3)]Man(b1-4)GlcNAc(b1-4)GlcNAc
# In short: as §1
# [31] = molecular target: Gal(b1-4)GlcNAc(b1-2)[Gal(b1-4)GlcNAc(b1-4)]Man(a1-3)[Gal(b1-4)GlcNAc(b1-2)Man(a1-6)]Man(b1-4)GlcNAc(b1-4)GlcNAc
# In short: as §1
# [32] = molecular target: Gal(b1-4)GlcNAc(b1-2)[Gal(b1-4)GlcNAc(b1-4)]Man(a1-3)[Gal(b1-4)GlcNAc(b1-2)[Gal(b1-4)GlcNAc(b1-6)]Man(a1-6)]Man(b1-4)GlcNAc(b1-4)GlcNAc
# In short: as §1
binder,measurement,setting,value
B1,glycan array binding signal (z-score),[1],0.145
same,glycan array binding signal (z-score),[2],-0.282
same,glycan array binding signal (z-score),[3],-0.342
same,glycan array binding signal (z-score),[4],-0.062
same,glycan array binding signal (z-score),[5],-0.324
same,glycan array binding signal (z-score),[6],-0.289
same,glycan array binding signal (z-score),[7],-0.231
same,glycan array binding signal (z-score),[8],-0.209
same,glycan array binding signal (z-score),Gal(b1-3)GlcNAc6S,-0.41
same,glycan array binding signal (z-score),[9],-0.255
same,glycan array binding signal (z-score),[10],-0.138
same,glycan array binding signal (z-score),[11],-0.16
same,glycan array binding signal (z-score),[12],-0.183
same,glycan array binding signal (z-score),[13],-0.248
same,glycan array binding signal (z-score),[14],-0.29
same,glycan array binding signal (z-score),[15],0.726
same,glycan array binding signal (z-score),[16],-0.247
same,glycan array binding signal (z-score),[17],-0.332
same,glycan array binding signal (z-score),Gal(b1-4)Gal,-0.272
same,glycan array binding signal (z-score),[18],-0.157
same,glycan array binding signal (z-score),[19],1.32
same,glycan array binding signal (z-score),Gal(b1-4)Glc,-0.09
same,glycan array binding signal (z-score),Gal(b1-4)Glc6S,0.199
same,glycan array binding signal (z-score),Gal(b1-4)GlcNAc,-0.269
same,glycan array binding signal (z-score),[20],-0.231
same,glycan array binding signal (z-score),Gal(b1-4)GlcNAc(b1-2)Man,-0.19
same,glycan array binding signal (z-score),[21],0.101
same,glycan array binding signal (z-score),[22],-0.03
same,glycan array binding signal (z-score),[23],-0.139
same,glycan array binding signal (z-score),[24],-0.038
same,glycan array binding signal (z-score),[25],-0.433
same,glycan array binding signal (z-score),[26],0.077
same,glycan array binding signal (z-score),[27],-0.229
same,glycan array binding signal (z-score),[28],-0.226
same,glycan array binding signal (z-score),[29],-0.081
same,glycan array binding signal (z-score),[30],-0.359
same,glycan array binding signal (z-score),[31],-0.187
same,glycan array binding signal (z-score),[32],-0.164

# Given as tab-separated lines: entries from further up.
binder	measurement	setting	value
B1	glycan array binding signal (z-score)	[22]	-0.03
same	glycan array binding signal (z-score)	[23]	-0.139
